Measurements: US20160362463A1 (CHINA MEDICAL UNIVERSITY, published 2016)

Biological target: T1, FLAG-Elk-1 (amino acids 1-428) (human, UniProt P19419 1-428)
T1 construct: range 1-428; Full-length Elk-1 expressed in HEK-293 cells; not shown: FLAG tag
T1 sequence (looked up): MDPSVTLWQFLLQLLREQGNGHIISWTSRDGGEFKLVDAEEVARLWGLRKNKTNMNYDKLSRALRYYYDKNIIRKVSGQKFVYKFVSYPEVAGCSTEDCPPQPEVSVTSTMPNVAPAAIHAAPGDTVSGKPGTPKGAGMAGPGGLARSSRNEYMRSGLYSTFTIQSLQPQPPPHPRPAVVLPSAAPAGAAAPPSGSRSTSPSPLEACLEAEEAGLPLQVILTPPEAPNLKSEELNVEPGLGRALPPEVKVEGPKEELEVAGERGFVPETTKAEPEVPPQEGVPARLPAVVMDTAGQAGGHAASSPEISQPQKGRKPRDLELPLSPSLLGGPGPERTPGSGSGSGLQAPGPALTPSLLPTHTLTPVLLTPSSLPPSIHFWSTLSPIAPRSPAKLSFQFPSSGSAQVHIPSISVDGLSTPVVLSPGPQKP
Test: co-immunoprecipitation (anti-c-Myc IP, anti-FLAG blot), HEK-293 cells

binding result: no binding
B1: MZF-1-c-Myc fragment, amino acids 73-485 (other, human, UniProt P28698-2 73-485, looked up)
chain: PCRGVGPALITTRWRSPRGRSRGRPSTGGGVVRGGRCDVCGKVFSQRSNLLRHQKIHTGERPFVCSECGRSFSRSSHLLRHQLTHTEERPFVCGDCGQGFVRSARLEEHRRVHTGEQPFRCAECGQSFRQRSNLLQHQRIHGDPPGPGAKPPAPPGAPEPPGPFPCSECRESFARRAVLLEHQAVHTGDKSFGCVECGERFGRRSVLLQHRRVHSGERPFACAECGQSFRQRSNLTQHRRIHTGERPFACAECGKAFRQRPTLTQHLRVHTGEKPFACPECGQRFSQRLKLTRHQRTHTGEKPYHCGECGLGFTQVSRLTEHQRIHTGERPFACPECGQSFRQHANLTQHRRIHTGERPYACPECGKAFRQRPTLTQHLRTHRREKPFACQDCGRRFHQSTKLIQHQRVHSAE
notes: range 73-485; Expressed in HEK-293 cells; also called MZF-173-485; not shown: c-Myc(-His) tag from the pcDNA3.1/myc-His vector
